Laboratory results: PubChem BioAssay AID2517 (National Center for Advancing Translational Sciences (NCATS), 2010)
The campaign covered roughly 350,000 compounds. About 1,200 (0.34%) were called active. The shares of active, inactive and inconclusive entries below differ from those in the screen. Calls come from the whole dose curve; as a rule, active = well fitted inhibition curve with a large enough effect; inconclusive = small, poorly fitted or top-dose-only effect; inactive = no such curve, though single readings can be large or run the other way. Where the call is inconclusive, the potency comes from a doubtful curve fit.

Sequences of proteins named here, by UniProt entry; tags and fusion partners are left off.
UniProt P27695, whole entry, looked up: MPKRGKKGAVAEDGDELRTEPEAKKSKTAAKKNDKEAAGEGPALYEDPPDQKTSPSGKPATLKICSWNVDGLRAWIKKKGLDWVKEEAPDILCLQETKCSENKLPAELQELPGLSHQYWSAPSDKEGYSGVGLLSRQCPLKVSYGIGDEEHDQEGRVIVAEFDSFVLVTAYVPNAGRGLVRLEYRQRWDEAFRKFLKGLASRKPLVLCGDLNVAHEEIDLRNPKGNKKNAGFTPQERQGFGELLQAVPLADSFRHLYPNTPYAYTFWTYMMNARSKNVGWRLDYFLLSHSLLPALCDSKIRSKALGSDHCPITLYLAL

target: DNA repair nuclease/redox regulator APEX1 (Homo sapiens) (UniProt P27695); assay: qHTS Assay for Inhibitors of the Human Apurinic/apyrimidinic Endonuclease 1 (APE1); details: recombinant APE1, TAMRA/BHQ-2 abasic DNA cleavage fluorescence; activity change, negative = inhibition: at 65.8 µM (top of the series); note: nearly all actives have a fitted effect of over 55% in size;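 for activity change, negative = inhibition: plate controls were vehicle for no effect and reference inhibitor for full effect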
Procedure, shortened: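 Readout is kinetic fluorescence (ex 525, em 598 nm) from cleavage of 50 nM TAMRA/BHQ-2 THF abasic duplex by 0.75 nM APE1, compound added 15 min beforehand at RT.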
Potency is the fitted concentration of half-maximal effect.

Structure (SMILES) | Potency | activity change, negative = inhibition
C#CCOCCOCCOCCNc1nc(N2CCN(C(=O)C(Cc3ccc(O)cc3)n3cc(C(N)C(C)CC)nn3)CC2)nc(N2CCN(C(=O)C(Cc3ccc(O)cc3)n3cc(C(N)C(C)CC)nn3)CC2)n1 (centres undefined) | inconclusive: 2.51 µM [inhibitor, full curve] | –
CCCCCCOc1ccc(N2C(=O)CC(NCc3ccc(S(N)(=O)=O)cc3)C2=O)cc1 (centres undefined) | inconclusive: 3.16 µM [inhibitor, full curve, poor fit] | –
COC(C)=O | – | inactive: 0.214%
COc1ccccc1CNC(=O)CSc1ccsc1[N+](=O)[O-] | – | inactive: -7.56%
CCOCc1cnc(C)nc1NCC(=O)c1c(C)[nH]c2ccc(OC)cc12 | inconclusive: 5.01 µM [inhibitor, partial curve, poor fit] | –
CC(C)N(NC(=O)c1cccc2ccccc12)C(C)C | inconclusive: 31.6 µM [inhibitor, single point] | –
Cc1onc(-c2c(F)cccc2Cl)c1C(=O)N[C@@H]1C(=O)N2C(C(=O)O)C(C)(C)S[C@H]12 (some centres undefined) | – | inactive: 9.42%
Cc1cccc(C(=O)N/N=C/c2ccc3c(c2)OCO3)n1 | inconclusive: 17.8 µM [inhibitor, partial curve] | –
CSc1nc(SCC(=O)NC(c2ccccc2)c2ccccc2)c2c3c(sc2n1)CN(C)CC3 | inconclusive: 22.4 µM [inhibitor, partial curve, poor fit] | –
Cn1cccc1Cc1nnc(SCC(=O)NCc2ccco2)n1CCc1ccccc1 | inconclusive: 44.7 µM [inhibitor, single point] | –
COc1ccc(C2(C(=O)NC(C)C)CCCC2)cc1OC | inconclusive: 39.8 µM [inhibitor, single point] | –
CC1CCCC(C)N1C(=O)Cn1cnc2cc([N+](=O)[O-])ccc2c1=O (centres undefined) | inconclusive: 25.1 µM [inhibitor, partial curve] | –
C/C(=N\NC(N)=S)C1C2C3CC4C5CC(C42)C1C53 (centres undefined) | – | inactive: -4.88%
O=C(O)CCSCCC(=O)O | inconclusive: 0.0056 µM [inhibitor, full curve, poor fit] | –
O=C(c1ccc(Br)cc1)N(c1ccccn1)C1CCCCC1 | inconclusive: 8.91 µM [inhibitor, single point] | –
O=C(c1ccccc1)c1ccccc1N1C(=O)C=CC1=O | – | inactive: -0.799%
S=c1[nH]nc(-c2ccccn2)n1/N=C/c1ccc(Br)s1 | – | inactive: 20.7%
Cn1c(NC(=O)/C=C/c2ccco2)cc(=O)n(C)c1=O | inconclusive: 22.4 µM [inhibitor, partial curve] | –
CO[C@@]1(NC(=O)Cc2cccs2)C(=O)N2C(C(=O)O)=C(COC(N)=O)CS[C@@H]21 | inconclusive: 17.8 µM [inhibitor, partial curve] | –
Cn1cnnc1SCC(=O)Nc1ccccc1Sc1ccccc1 | inconclusive: 44.7 µM [inhibitor, single point] | –
Cc1ccc(C(=O)C2=C(O)C(=O)N(c3ncccn3)C2c2ccc(F)cc2)o1 (centres undefined) | inconclusive: 7.08 µM [inhibitor, single point] | –
COc1ccc(NC(=O)CSc2nc3nc(-c4cccs4)cc(C(F)(F)F)c3c(=O)[nH]2)c(OC)c1 | inconclusive: 14.1 µM [inhibitor, single point] | –
O=c1[nH]c(/C=C/c2cccc3ccccc23)nc2ccccc12 | – | inactive: 5.3%

Structure (SMILES) | Potency | activity change, negative = inhibition
CC(C)(C)NC(=O)c1ccc2nccnc2c1 | inconclusive: 0.355 µM [inhibitor, full curve] | –
CN=C(Nc1ccccc1)SC1CC(=O)N(c2ccc(C(=O)OC)cc2)C1=O (centres undefined) | inconclusive: 28.2 µM [inhibitor, single point] | –
CC(=O)NC1C(=O)N(CCN2CCOCC2)c2ccc(Br)cc21 (centres undefined) | inconclusive: 29.9 µM [inhibitor, single point] | –
Cc1nn(-c2ccccc2)c(=O)c2ccccc12 | inconclusive: 0.0708 µM [inhibitor, full curve, poor fit] | –
CC(=O)NCC(=O)OCC(=O)c1ccc(C)c(C)c1 | – | inactive: -2.49%
CC(=O)Nc1sc(N/N=C\c2cccc(Cl)c2)nc1-c1cccs1 | inconclusive: 5.62 µM [inhibitor, full curve] | –
COc1ccc(-c2nc(-c3ccccn3)ncc2S(C)(=O)=O)cc1 | – | inactive: 1.39%
O=C(Nc1ccc2c(c1)OCO2)c1ccc(Cl)s1 | inconclusive: 39.8 µM [inhibitor, single point] | –
C=CCOc1c(Br)cc(C2NC(=O)NC(C)=C2C(C)=O)cc1OCC (centres undefined) | inconclusive: 44.7 µM [inhibitor, single point] | –
Cn1cnnc1Sc1ccc(C(=O)OCC(=O)Nc2ccccc2)cc1[N+](=O)[O-] | – | inactive: -1.9%
CCCCCC/C=C\CCCCCCCc1cccc(O)c1C(=O)O | – | inactive: 3.41%
O=C(O)/C=C/C(=O)Nc1ccc2c(c1)C(=O)c1ccccc1C2=O | inconclusive: 31.6 µM [inhibitor, single point] | –
Cc1ccc(S(=O)(=O)N2CC=C(C(=O)NC3CC3)CC2)cc1 | inconclusive: 44.7 µM [inhibitor, single point] | –
O=C1/C(=C\c2ccco2)SC(=S)N1C1CCS(=O)(=O)C1 (centres undefined) | active: 20 µM | –
CCN1C(=O)/C(=C\c2ccc(-c3cccc(C(=O)OC)c3)o2)SC1=Nc1ccc(C(=O)O)cc1 | inconclusive: 29.9 µM [inhibitor, single point] | –
O=C(Cc1cccs1)Nc1nc2ccccc2s1 | inconclusive: 7.08 µM [inhibitor, partial curve] | –
C=CCn1c(COc2ccc(F)cc2)nnc1SCC(=O)Nc1cccc(S(N)(=O)=O)c1 | inconclusive: 0.562 µM [inhibitor, partial curve] | –
O=C(CNS(=O)(=O)c1ccc(Br)s1)N1CCC(N2CCCCC2)CC1 | inconclusive: 8.91 µM [inhibitor, partial curve] | –
COc1ccccc1N1CCN(C(c2ccc(C)cc2)c2nnnn2C(C)C)CC1 (centres undefined) | inconclusive: 2.82 µM [inhibitor, partial curve, poor fit] | –
CS(=O)(=O)c1ccc2nc(NC(=O)Nc3cccc(Cl)c3)sc2c1 | inconclusive: 39.8 µM [inhibitor, partial curve, poor fit] | –
CC(=O)c1cccc(Nc2cc(C)nc3ccccc23)c1 | inconclusive: 44.7 µM [inhibitor, single point] | –
Cc1n[nH]c(C)c1Sc1ccccc1N=Cc1cc(Cl)cc([N+](=O)[O-])c1O | – | inactive: -0.0411%
Cc1nnc(SCC(=O)NC(=O)NC(C)C)s1 | inconclusive: 3.16 µM [inhibitor, single point] | –

Structure (SMILES) | Potency | activity change, negative = inhibition
O=C(OCc1nnc(-c2ccccc2)o1)c1cc(=O)c2ccccc2o1 | inconclusive: 7.94 µM [inhibitor, single point] | –
CN(C)c1ncc(S(=O)(=O)c2ccccc2)c(-c2ccccc2Cl)n1 | – | inactive: -3.93%
COC(=O)C1=C(Nc2ccc(C)cc2)C=C(C)C(C(=O)OC)C1c1ccc(F)cc1 (centres undefined) | inconclusive: 3.55 µM [inhibitor, single point] | –
O=C(O)CSc1c(-c2ccccc2)[nH]c2ccccc12 | inconclusive: 0.316 µM [inhibitor, full curve, poor fit] | –
CCn1c(N)[n+](CC(=O)Nc2ccc(SC(F)F)cc2)c2ccccc21 | – | inactive: -2.46%
Cc1snc(SCc2ccc(F)cc2)c1C#N | – | inactive: -16.6%
CN(C)c1ncnc2ccc(-c3ccc4c(c3)OCO4)cc12 | inconclusive: 44.7 µM [inhibitor, single point] | –
CCN(CC)C(=S)SCC(=O)Nc1ccc(F)cc1 | – | inactive: -5.27%
COc1ccc(CNC(=O)CSc2ncn[nH]2)cc1OC | – | inactive: 72.2%
C=CCN1C(=O)CS/C1=N\S(=O)(=O)c1ccc(Cl)cc1 | – | inactive: -3.55%
C=CCn1c(=O)c2ccccc2n2c(SCC(=O)c3ccccc3)nnc12 | inconclusive: 44.7 µM [inhibitor, single point] | –
O=C1N=c2ccccc2=C1c1sc(Nc2ccc(O)cc2)nc1O | inconclusive: 31.6 µM [inhibitor, single point] | –
Cc1ccc(-c2cc(C(=O)NCc3cnn(C)c3)c3cc(Br)ccc3n2)cc1 | – | inactive: 0.531%
Cc1ccc(S(=O)(=O)Nc2nc(-c3ccccc3)cs2)cc1 | – | inactive: 5.64%
CCCC(C)C(=O)Nc1nc(C)c(-c2csc(Nc3cc(Cl)ccc3C)n2)s1 (centres undefined) | inconclusive: 31.6 µM [inhibitor, partial curve] | –
CC(=O)OC[C@@H]1O[C@@H](O/N=C2/C[C@@H](O)[C@@H](O)[C@@H]3[C@@H]4C(=O)N(Cc5ccc6c(c5)OCO6)C(=O)[C@H]4CC[C@@H]23)[C@H](OC(C)=O)[C@H](OC(C)=O)[C@@H]1OC(C)=O | inconclusive: 7.08 µM [inhibitor, single point] | –
COc1ccc(C(=O)Nc2ccccn2)cc1 | inconclusive: 0.0355 µM [inhibitor, full curve, poor fit] | –
CC(=O)c1c(COC(=O)c2ccccc2Cl)nc2ccccc2[n+]1[O-] | inconclusive: 3.98 µM [inhibitor, single point] | –
O=C(NC1CCCCC1)N1CCC(n2cnc3ccccc32)CC1 | inconclusive: 3.16 µM [inhibitor, partial curve] | –
Cc1cc2ccccn2c1C(=O)c1ccc(S(=O)(=O)N(C)C)cc1 | inconclusive: 39.8 µM [inhibitor, single point] | –
N#Cc1ccc(N=c2ssnc2Cl)cc1 | inactive | –
CC(C)(C)OC(=O)N1C2C=CC1C1=COCCN1C2=O (centres undefined) | inconclusive: 44.7 µM [inhibitor, single point] | –
CCn1c(=O)c2cc(C(=O)N(C)c3ccc(OC)cc3OC)sc2c2ccccc21 | inconclusive: 0.1 µM [inhibitor, full curve, poor fit] | –

Entries of single compounds from above.
Cc1ccc(S(=O)(=O)Nc2nc(-c3ccccc3)cs2)cc1 as listed: activity change, negative = inhibition: inactive: 5.64%
CCCC(C)C(=O)Nc1nc(C)c(-c2csc(Nc3cc(Cl)ccc3C)n2)s1 (centres undefined) as listed: Potency: inconclusive: 31.6 µM [inhibitor, partial curve]
CCN(CC)C(=S)SCC(=O)Nc1ccc(F)cc1 as listed: activity change, negative = inhibition: inactive: -5.27%
CN(C)c1ncc(S(=O)(=O)c2ccccc2)c(-c2ccccc2Cl)n1 as listed: activity change, negative = inhibition: inactive: -3.93%
